Experimental data from article PMC7438327.
Results are given in words; binding and its absence hold for the method and conditions named. In cells and extracts the contact can be indirect. Some entries that bind do so weakly or less than the wild type. Where a sequence is shown, tags or fusion partners need not be part of it.

Chains of the proteins cited; added tags and fusions are not shown. Lines headed by an entry give the natural chain unless they say otherwise; changes in a name come on top. A line that says so, or that is headed by a name, gives the form on record, which may keep a tag or linker. Residues count along the entry.
cyclophilin D (CypD) WT, rescued in HEK CypD-KO cells (P30405, residues 30-207): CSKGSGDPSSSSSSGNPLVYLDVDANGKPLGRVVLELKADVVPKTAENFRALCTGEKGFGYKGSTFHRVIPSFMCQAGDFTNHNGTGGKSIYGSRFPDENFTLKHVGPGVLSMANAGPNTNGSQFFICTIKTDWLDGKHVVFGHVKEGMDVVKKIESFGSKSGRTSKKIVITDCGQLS
cyclophilin D (CypD) phosphomimetic S191E mutant, rescued in HEK CypD-KO cells (P30405, form named): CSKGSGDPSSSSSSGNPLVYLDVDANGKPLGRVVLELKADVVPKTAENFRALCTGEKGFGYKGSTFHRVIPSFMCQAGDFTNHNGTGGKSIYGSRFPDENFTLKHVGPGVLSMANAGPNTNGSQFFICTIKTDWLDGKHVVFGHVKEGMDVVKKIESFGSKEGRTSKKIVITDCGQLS
cyclophilin D (CypD) phosphoresistant S191A mutant, rescued in HEK CypD-KO cells (P30405, form named): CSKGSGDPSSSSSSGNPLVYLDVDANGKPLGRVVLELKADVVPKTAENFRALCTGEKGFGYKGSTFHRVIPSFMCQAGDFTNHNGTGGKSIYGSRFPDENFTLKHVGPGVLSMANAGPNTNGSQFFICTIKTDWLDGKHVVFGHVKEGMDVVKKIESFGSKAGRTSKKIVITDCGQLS

biological target: T1, oligomycin sensitivity-conferring protein (OSCP), endogenous in HEK cells (human (endogenous in HEK)) (UniProt P48047); experiment: proximity ligation; in situ PLA between OSCP and CypD in HEK CypD-KO cells rescued with WT, S191A or S191E CypD; basal condition and after 18 h starvation; interactions per cell as fold of WT
T1 sequence: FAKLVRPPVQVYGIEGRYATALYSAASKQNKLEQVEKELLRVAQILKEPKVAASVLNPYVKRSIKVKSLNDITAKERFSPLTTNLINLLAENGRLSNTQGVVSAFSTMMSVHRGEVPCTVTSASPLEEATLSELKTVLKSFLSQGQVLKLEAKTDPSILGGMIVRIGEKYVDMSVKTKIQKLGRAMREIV

binding, binds:
cyclophilin D (CypD) WT, rescued in HEK CypD-KO cells (from UniProt P30405 30-207)
cyclophilin D (CypD) phosphomimetic S191E mutant, rescued in HEK CypD-KO cells (from UniProt P30405 30-207)
cyclophilin D (CypD) phosphoresistant S191A mutant, rescued in HEK CypD-KO cells (from UniProt P30405 30-207)
